Source: PubChem BioAssay AID743121 (NCATS, 2013)

Test: 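Genes whose silencing strengthens cell killing by camptothecin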 (primary screen)
System: MDA-MB-231 cells, a human breast cancer line
Reagents: single siRNA against human genes, 20 nM siRNA (0.8 pmol per well)
Time to read-out: 120 h (drug added 48 h after transfection, read 72 h later)
Conditions: camptothecin 20 nM (about EC30) for 72 h; vehicle 0.1% DMSO in parallel plates
Read-out: 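CellTiter-Glo ATP signal, scaled to control siRNA as percent viability; sensitisation given as log2 of untreated divided by camptothecin-treated viability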
Reading the numbers: log2 vehicle/camptothecin viability: higher = stronger sensitisation to camptothecin
Active means: 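Each gene scored by redundant siRNA activity (RSA) over its individual siRNA ratios; a gene is called active at p < 0.001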
The deposit covers about 26,000 reagents; below is a random part of them. 167 of all reagents (0.63%) count as active. 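Calls are per gene from RSA p-values that are not deposited; an individual active-marked siRNA can sensitise only weakly.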 Unmarked entries are inactive. The numbers tell different reagents against one gene apart. Further read-outs or replicates are left out here. No sequences are given here.

For SMAD5 (GeneID 4090) #1, what was measured?
log2 vehicle/camptothecin viability: -0.046

Which result is listed for SMAD5 (GeneID 4090) #2?
log2 vehicle/camptothecin viability: -0.555

What did the screen give for SMAD5 (GeneID 4090) #3?
log2 vehicle/camptothecin viability: -0.667

With SMAD5 (GeneID 4090) #4, how do the results read?
log2 vehicle/camptothecin viability: -0.647

With RARG (GeneID 5916) #1, what was measured?
log2 vehicle/camptothecin viability: -0.172

What is on record for RARG (GeneID 5916) #2?
log2 vehicle/camptothecin viability: -0.285

What did the screen give for RARG (GeneID 5916) #3?
log2 vehicle/camptothecin viability: 0.0586

With RARG (GeneID 5916) #4, how do the results read?
log2 vehicle/camptothecin viability: 0.0328

With RARG (GeneID 5916) #5, how do the results read?
log2 vehicle/camptothecin viability: 0.00199

For RARG (GeneID 5916) #6, what does the deposit list?
log2 vehicle/camptothecin viability: -0.291

Which result is listed for RARG (GeneID 5916) #7?
log2 vehicle/camptothecin viability: -0.186

With RARG (GeneID 5916) #8, what does the deposit list?
log2 vehicle/camptothecin viability: -0.0422

How did the screen score FKBP4 (GeneID 2288) #1?
log2 vehicle/camptothecin viability: 0.19

What is on record for FKBP4 (GeneID 2288) #2?
log2 vehicle/camptothecin viability: -0.401

With FKBP4 (GeneID 2288) #3, how do the results read?
log2 vehicle/camptothecin viability: -0.11

What is on record for FKBP4 (GeneID 2288) #4?
log2 vehicle/camptothecin viability: -0.383

How did the screen score CRY2 (GeneID 1408) #1?
log2 vehicle/camptothecin viability: -0.448

For CRY2 (GeneID 1408) #2, what does the deposit list?
log2 vehicle/camptothecin viability: -0.265

Which result is listed for CRY2 (GeneID 1408) #3?
log2 vehicle/camptothecin viability: -0.183

With CRY2 (GeneID 1408) #4, what does the deposit list?
log2 vehicle/camptothecin viability: -0.0787

For PGK1 (GeneID 5230) #1, what was measured?
log2 vehicle/camptothecin viability: 0.161

With PGK1 (GeneID 5230) #2, what was measured?
log2 vehicle/camptothecin viability: 0.26

For PGK1 (GeneID 5230) #3, what was measured?
log2 vehicle/camptothecin viability: -1.07

What did the screen give for PGK1 (GeneID 5230) #4?
log2 vehicle/camptothecin viability: -0.168

What is on record for CRY1 (GeneID 1407) #1?
log2 vehicle/camptothecin viability: 0.00869

For CRY1 (GeneID 1407) #2, how do the results read?
log2 vehicle/camptothecin viability: 0.0394

How did the screen score CRY1 (GeneID 1407) #3?
log2 vehicle/camptothecin viability: -0.00517

Which result is listed for CRY1 (GeneID 1407) #4?
log2 vehicle/camptothecin viability: 0.323

With GRIN3B (GeneID 116444) #1, what was measured?
log2 vehicle/camptothecin viability: -0.00708

For GRIN3B (GeneID 116444) #2, how do the results read?
log2 vehicle/camptothecin viability: -0.0527

Which result is listed for GRIN3B (GeneID 116444) #3?
log2 vehicle/camptothecin viability: -0.32

What is on record for GRIN3B (GeneID 116444) #4?
log2 vehicle/camptothecin viability: 0.317

With RGS11 (GeneID 8786) #1, what was measured?
log2 vehicle/camptothecin viability: -0.394

What is on record for RGS11 (GeneID 8786) #2?
log2 vehicle/camptothecin viability: 0.199

What is on record for RGS11 (GeneID 8786) #3?
log2 vehicle/camptothecin viability: -0.506

With NPFF (GeneID 8620) #1, what does the deposit list?
log2 vehicle/camptothecin viability: 0.0519

Which result is listed for NPFF (GeneID 8620) #2?
log2 vehicle/camptothecin viability: -0.404

For NPFF (GeneID 8620) #3, what was measured?
log2 vehicle/camptothecin viability: 0.195

For NPFF (GeneID 8620) #4, how do the results read?
log2 vehicle/camptothecin viability: 0.0337

Which result is listed for LIPM (GeneID 340654) #1?
log2 vehicle/camptothecin viability: 0.634

Which result is listed for LIPM (GeneID 340654) #2?
log2 vehicle/camptothecin viability: -0.277

With LIPM (GeneID 340654) #3, what does the deposit list?
log2 vehicle/camptothecin viability: -0.327

What did the screen give for LIPM (GeneID 340654) #4?
log2 vehicle/camptothecin viability: -0.0888

For CLOCK (GeneID 9575) #1, how do the results read?
log2 vehicle/camptothecin viability: -0.581

For CLOCK (GeneID 9575) #2, what was measured?
log2 vehicle/camptothecin viability: 0.507

For CLOCK (GeneID 9575) #3, what was measured?
log2 vehicle/camptothecin viability: -0.147

For CLOCK (GeneID 9575) #4, how do the results read?
log2 vehicle/camptothecin viability: 0.205

No new results follow: an excerpt of the list.
PGK1 (GeneID 5230) #1 → log2 vehicle/camptothecin viability: 0.161
PGK1 (GeneID 5230) #2 → log2 vehicle/camptothecin viability: 0.26
PGK1 (GeneID 5230) #3 → log2 vehicle/camptothecin viability: -1.07
